Laboratory results taken from PubChem BioAssay AID651803 (National Center for Advancing Translational Sciences (NCATS), 2012).
Hit rate of the full screen: of about 1,200 compounds, fewer than 10 were called active. The call rests on the fitted dose curve; in most records, active means well fitted curve in the direction sought with a large enough effect; inconclusive means small, poorly fitted or top-dose-only effect, or another doubt; inactive means no such curve, though single readings can be large or run the other way. Some of the results follow.

Protein sequences, listed by entry. Tags and fused reporters are not part of them. Lines headed by an entry give the natural chain unless they say otherwise; changes in a name come on top.
UniProt P11308: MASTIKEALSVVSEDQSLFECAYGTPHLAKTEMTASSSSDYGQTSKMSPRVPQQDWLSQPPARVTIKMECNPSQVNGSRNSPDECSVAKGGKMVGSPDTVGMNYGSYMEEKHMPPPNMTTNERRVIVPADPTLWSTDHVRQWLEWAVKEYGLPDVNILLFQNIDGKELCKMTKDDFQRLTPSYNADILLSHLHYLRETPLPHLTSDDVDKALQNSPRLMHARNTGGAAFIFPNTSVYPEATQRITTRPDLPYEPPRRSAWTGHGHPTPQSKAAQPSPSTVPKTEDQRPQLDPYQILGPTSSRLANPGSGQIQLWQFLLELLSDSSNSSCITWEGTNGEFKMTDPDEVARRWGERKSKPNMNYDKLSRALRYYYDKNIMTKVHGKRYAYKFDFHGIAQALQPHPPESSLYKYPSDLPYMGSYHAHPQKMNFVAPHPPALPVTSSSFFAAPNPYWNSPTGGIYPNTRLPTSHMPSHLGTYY

These compounds were tested against Transcriptional regulator ERG (Homo sapiens) (UniProt P11308) (assay: qHTS for Small Molecule Inhibitors of the ERG Ets/DNA interaction: TR assay against cherry picks). Conditions: ERG Ets domain-DNA fluorescence polarization, Texas red probe; at 154 µM (top of the series).
Method in brief: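 Polarization read sequentially for fluorescein (ex 480/em 535 nm) and Texas red (ex 555/em 632 nm) probes, 5 nM and 100 nM solutions, displaced from His-ERG Ets domain (1 uM solution), pH 7.5 Tris/KCl/EDTA/DTT buffer.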
Further: % of control where 0% means no effect.

Activity change, negative = inhibition, inactive:
COc1ccccc1S(=O)(=O)Cc1ccc(C(=O)NCCN(C)C)o1 0.0621%
CCOc1ccc(NC(=O)CN(C)C(=O)c2ccccc2CCc2ccccc2)cc1OCC -0.492%
Cc1noc(C)c1C(=O)Nc1cccnc1 -5.56%
Cc1c(NS(=O)(=O)c2ccc(NCC3CCCO3)c([N+](=O)[O-])c2)c(=O)n(-c2ccccc2)n1C (centres undefined) 0.67%
Oc1ccccc1CN1CCCC(N2CCN(c3cccc(C(F)(F)F)c3)CC2)C1 (centres undefined) -0.432%
CCC(c1nnnn1Cc1ccc(F)cc1)N1CCN(C)CC1 (centres undefined) 0.167%
CC(=O)c1cccc(NC(=O)C(C)OC(=O)c2ccc3ncsc3c2)c1 (centres undefined) -2.88%
CCCNC(=O)CCC(=O)N1Cc2ccccc2Oc2ncccc21 -15.3%
COc1ccc(C(=O)n2nc(C)c(Br)c2C)cc1OC 1.94%
CN(C)Cc1cc2ccccc2c2c1COC2 -13.2%
Cc1cc(C)c2nc(NC(=O)[C@@H](NC(=O)c3cccc(S(=O)(=O)N4CCOCC4)c3)C(C)C)sc2c1 -9.98%
CSc1ccc(S(=O)(=O)N2CCC(C(=O)NCc3ccncc3)CC2)cc1 -3.33%
CC(CN1CCOCC1)(NS(=O)(=O)c1ccccc1)c1ccccc1 (centres undefined) -9.83%
Cc1cccc([N+](=O)[O-])c1C(=O)O -2.94%
C[N+](C)(C)CCCCCC[N+](C)(C)C -3.19%
COC(=O)Cn1c(=NC(=O)C2COc3ccccc3O2)sc2cc(S(N)(=O)=O)ccc21 (centres undefined) 6.29%
O=C(O)c1cc(O)c2c(c1)[C@H]([C@H]1c3cc(C(=O)O)cc(O)c3C(=O)c3c(O[C@@H]4O[C@H](CO)[C@@H](O)[C@H](O)[C@H]4O)cccc31)c1cccc(OC3O[C@H](CO)[C@@H](O)[C@H](O)[C@H]3O)c1C2=O (some centres undefined) -12.2%
CN(C(=O)CSc1nnc(NC(=O)Nc2ccccc2)s1)c1ccccc1 -24.6%
COc1ccc([C@@H](NC(=O)OC(C)(C)C)C(=O)OC(C)(C)C)cc1 -13.8%
CC(C)C(=O)NC(=S)Nc1ccc(S(=O)(=O)Nc2ccccc2)cc1 -5.61%
COC(=O)c1ccccc1NS(=O)(=O)c1ccc2c(c1)CCCN2C(C)=O -9.86%
O=C(NC1CCSc2ccccc21)c1cc([N+](=O)[O-])ccc1N1CCOCC1 (centres undefined) -8.36%
CCCN1C[C@H](CSC)C[C@@H]2c3cccc4[nH]cc(c34)C[C@H]21 -4.98%
O=c1[nH]c2cc(F)ccc2c2ccc(F)cc12 -1.91%
O=C(NC1CCCCC1)C(c1ccc(O)cc1)N(C(=O)c1cnccn1)c1cccc(F)c1 (centres undefined) -0.587%
CCOC(=O)c1cnc2ccc(OC)cc2c1Nc1ccc(N2CCN(C)CC2)cc1 -8.5%
Cc1csc(=O)n1CCC(=O)OCC(=O)Nc1ncc(Cl)cc1Cl -0.888%
COc1cc(S(C)=O)ccc1-c1nc2ncccc2[nH]1 (centres undefined) 3.44%
Cn1c(CNC(=O)c2cccs2)n[nH]c1=S 5.98%
COC(=O)N/N=C/c1cccs1 -5.32%
Cc1cc(C(C)(C)C)c(O)c(C)c1CC1=NCCN1 3.64%
O=S(=O)(NC1CCCCC1)c1ccc(Br)s1 -2.71%
CC(C)COC(=O)/C(C#N)=C/c1c[nH]c2ccccc12 1.44%
Nc1cccc2nc3ccccc3cc12 -3.2%
O=C(NCC1CCCO1)C1CC(=O)N(c2ccc(Cl)cc2)C1 (centres undefined) 5.06%
COC(=O)c1ccc(COc2ccccc2[N+](=O)[O-])o1 -10.7%
CCCCCCCN=CC1=C(O)CC(c2ccccc2)CC1=O (centres undefined) 2.46%
COC(=O)c1c(C(=O)OC)c(-c2ccc(OC)cc2)n2c1CS(=O)C2 (centres undefined) 4.12%
Cc1cc(C)c2c(N)c(C(=O)c3ccc(Cl)cc3)sc2n1 5.05%
N#C/C(=C/c1ccc(N2CCCCC2)o1)C(=O)NCCc1c[nH]c2ccccc12 27.7%
Nn1cnnc1N/N=C/c1cccc(Cl)c1Cl 3.27%
CCOc1ccc2nc(SCC(=O)c3ccc(C)s3)sc2c1 2.47%
COc1cc(OC)cc(C(=O)NCC(=O)OCc2csc(-c3ccccc3)n2)c1 -2.77%
Cc1ncc([N+](=O)[O-])n1CC(=O)N/N=C/c1ccc(F)cc1 -3.78%
Cc1sc2nc(CSC(C)C(=O)Nc3ccc(C(N)=O)cc3)[nH]c(=O)c2c1C (centres undefined) -3%
CCC(C)NCCCOc1ccc(C)cc1OC (centres undefined) -4.22%
Nc1ccccc1-n1cccc1 3.9%
Cc1nn(C2CCS(=O)(=O)C2)c(Cl)c1/C=C/C(=O)OCC(=O)c1c[nH]c2ccccc12 (centres undefined) -5.66%
Cc1ccc(N(Cc2cc(=O)[nH]c3ccccc23)C(=O)CCl)c(C)c1 -9.63%
COc1cc([N+](=O)[O-])cc2sc(NC(=O)c3c(F)cccc3F)nc12 -4.41%
S=C(NCc1ccccc1)Nc1cccc(Cl)c1 3.35%
CCOc1ccccc1CNc1ccc(O)cc1 1.21%
Oc1ccc(NCc2ccccc2OCc2ccc(Cl)cc2)cc1 8.24%
COc1ccc(NC(=O)CSCC(=O)N(C)Cc2cccc(OC)c2OC)cc1 1.32%
CC(C)[C@H](NS(=O)(=O)c1ccccc1F)C(=O)NC1CCCCC1 -1.28%
CCOC(=O)C1(CCc2ccccc2)CCN(C(=O)[C@@H]2C[C@@H](C)NC(=S)N2)CC1 15.7%
NC(=O)Nc1ccc(C(=O)OCC(=O)NC2CCCc3ccccc32)cc1 (centres undefined) -13.4%
COc1ccc(NC(=O)c2ccc(NC(=O)c3nc4nccc(C)n4n3)cc2)cc1 9.11%
COc1cc(/C=N/N2C(=O)C3C4C=CC(CC4)C3C2=O)ccc1O (centres undefined) -7.44%

Quoted from the entries so far, 16 compounds:
Activity change, negative = inhibition, inactive:
CC(=O)c1cccc(NC(=O)C(C)OC(=O)c2ccc3ncsc3c2)c1 (centres undefined) -2.88%
CCCNC(=O)CCC(=O)N1Cc2ccccc2Oc2ncccc21 -15.3%
COc1ccc(C(=O)n2nc(C)c(Br)c2C)cc1OC 1.94%
CN(C)Cc1cc2ccccc2c2c1COC2 -13.2%
Cc1cc(C)c2nc(NC(=O)[C@@H](NC(=O)c3cccc(S(=O)(=O)N4CCOCC4)c3)C(C)C)sc2c1 -9.98%
CSc1ccc(S(=O)(=O)N2CCC(C(=O)NCc3ccncc3)CC2)cc1 -3.33%
CC(CN1CCOCC1)(NS(=O)(=O)c1ccccc1)c1ccccc1 (centres undefined) -9.83%
Cc1cccc([N+](=O)[O-])c1C(=O)O -2.94%
C[N+](C)(C)CCCCCC[N+](C)(C)C -3.19%
COC(=O)Cn1c(=NC(=O)C2COc3ccccc3O2)sc2cc(S(N)(=O)=O)ccc21 (centres undefined) 6.29%
O=C(O)c1cc(O)c2c(c1)[C@H]([C@H]1c3cc(C(=O)O)cc(O)c3C(=O)c3c(O[C@@H]4O[C@H](CO)[C@@H](O)[C@H](O)[C@H]4O)cccc31)c1cccc(OC3O[C@H](CO)[C@@H](O)[C@H](O)[C@H]3O)c1C2=O (some centres undefined) -12.2%
CN(C(=O)CSc1nnc(NC(=O)Nc2ccccc2)s1)c1ccccc1 -24.6%
COc1ccc([C@@H](NC(=O)OC(C)(C)C)C(=O)OC(C)(C)C)cc1 -13.8%
CC(C)C(=O)NC(=S)Nc1ccc(S(=O)(=O)Nc2ccccc2)cc1 -5.61%
COC(=O)c1ccccc1NS(=O)(=O)c1ccc2c(c1)CCCN2C(C)=O -9.86%
O=C(NC1CCSc2ccccc21)c1cc([N+](=O)[O-])ccc1N1CCOCC1 (centres undefined) -8.36%
